In EP0325044 (dated 1989):

Assay: general procedure: peptide synthesis; HOBT

Substance: PEPTIDE1{[dA].[dV].K.K.Y.[dL]}$PEPTIDE1,PEPTIDE1,1:R1-6:R2$$$V2.0
- cyclisation yield (cyclisation step, trifluoroacetate salt (Example 1), acetate salt (Example 2)): 86%
- step yield (late stage modification step, acetate salt): 98%
- crude yield (whole synthesis, trifluoroacetate salt (Example 1), acetate salt (Example 2)): 92%

HELM strings list residues between dots; [ac] is acetyl, [am] amide, other brackets name non-standard units.
